Reference: the supplement of paper PMC10849652
The other results are listed elsewhere or left out. Residues, ends and D or L forms follow the SMILES beside them. *: point of attachment. Cbz = O=C(OCc1ccccc1)*

Amino acid sequences for entries named in this document (tags omitted). A change or cut given only in a name is not applied to a line headed by its entry.
UniProt P62714, whole entry, looked up: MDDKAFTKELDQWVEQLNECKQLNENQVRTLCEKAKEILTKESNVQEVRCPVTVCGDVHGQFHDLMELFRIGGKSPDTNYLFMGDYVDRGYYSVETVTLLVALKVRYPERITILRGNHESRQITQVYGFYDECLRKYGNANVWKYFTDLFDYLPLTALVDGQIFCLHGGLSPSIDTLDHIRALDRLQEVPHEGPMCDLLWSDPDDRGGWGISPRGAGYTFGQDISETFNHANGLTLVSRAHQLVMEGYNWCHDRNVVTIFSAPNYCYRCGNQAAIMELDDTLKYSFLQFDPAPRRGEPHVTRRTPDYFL
UniProt P41236: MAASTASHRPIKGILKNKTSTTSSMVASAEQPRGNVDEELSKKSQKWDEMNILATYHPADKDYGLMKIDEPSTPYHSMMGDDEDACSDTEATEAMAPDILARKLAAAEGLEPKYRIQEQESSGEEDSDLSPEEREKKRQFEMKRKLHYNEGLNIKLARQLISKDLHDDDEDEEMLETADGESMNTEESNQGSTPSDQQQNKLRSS
UniProt Q12972: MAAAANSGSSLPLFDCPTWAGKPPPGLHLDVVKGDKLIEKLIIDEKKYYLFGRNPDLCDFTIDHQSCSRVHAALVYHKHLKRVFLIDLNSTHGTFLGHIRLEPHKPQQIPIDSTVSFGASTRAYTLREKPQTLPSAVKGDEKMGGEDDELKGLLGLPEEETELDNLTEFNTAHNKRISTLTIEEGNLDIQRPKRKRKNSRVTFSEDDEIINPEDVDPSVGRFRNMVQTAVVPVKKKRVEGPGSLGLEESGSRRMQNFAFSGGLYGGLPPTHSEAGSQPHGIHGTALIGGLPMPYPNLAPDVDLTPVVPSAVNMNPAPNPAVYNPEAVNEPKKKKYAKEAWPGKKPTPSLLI
UniProt Q9H875: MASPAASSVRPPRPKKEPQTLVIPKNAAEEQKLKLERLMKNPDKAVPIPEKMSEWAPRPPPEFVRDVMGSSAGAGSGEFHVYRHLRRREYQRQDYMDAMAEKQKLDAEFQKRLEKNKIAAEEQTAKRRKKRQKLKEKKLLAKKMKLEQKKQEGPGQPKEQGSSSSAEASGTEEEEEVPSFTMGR
UniProt P11908: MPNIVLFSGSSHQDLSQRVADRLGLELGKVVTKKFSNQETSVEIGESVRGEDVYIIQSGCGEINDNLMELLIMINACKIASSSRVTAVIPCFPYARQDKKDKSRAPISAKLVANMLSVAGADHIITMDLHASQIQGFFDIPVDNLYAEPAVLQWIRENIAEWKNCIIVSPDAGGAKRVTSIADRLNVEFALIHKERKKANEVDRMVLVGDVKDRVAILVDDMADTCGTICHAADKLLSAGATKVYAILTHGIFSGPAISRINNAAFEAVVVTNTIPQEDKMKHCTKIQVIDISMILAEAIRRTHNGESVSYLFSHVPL
UniProt P48147: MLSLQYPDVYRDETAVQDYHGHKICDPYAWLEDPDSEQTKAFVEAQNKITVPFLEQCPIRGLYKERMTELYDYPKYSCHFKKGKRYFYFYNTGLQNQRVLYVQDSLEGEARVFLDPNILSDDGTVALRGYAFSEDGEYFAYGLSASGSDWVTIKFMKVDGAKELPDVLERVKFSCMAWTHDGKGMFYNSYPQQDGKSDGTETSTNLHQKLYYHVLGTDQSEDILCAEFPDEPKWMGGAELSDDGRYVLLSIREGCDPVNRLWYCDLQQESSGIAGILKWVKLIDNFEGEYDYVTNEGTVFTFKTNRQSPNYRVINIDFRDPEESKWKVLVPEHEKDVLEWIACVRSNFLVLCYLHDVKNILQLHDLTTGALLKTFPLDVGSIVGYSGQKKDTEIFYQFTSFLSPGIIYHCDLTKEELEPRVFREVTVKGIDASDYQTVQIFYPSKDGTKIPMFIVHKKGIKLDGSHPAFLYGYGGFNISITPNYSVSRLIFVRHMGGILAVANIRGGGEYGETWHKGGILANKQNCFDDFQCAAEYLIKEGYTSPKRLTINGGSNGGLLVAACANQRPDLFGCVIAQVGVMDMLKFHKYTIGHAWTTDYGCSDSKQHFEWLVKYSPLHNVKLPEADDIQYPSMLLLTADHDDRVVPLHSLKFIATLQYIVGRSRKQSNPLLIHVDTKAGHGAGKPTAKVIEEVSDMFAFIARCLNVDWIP
UniProt Q6NYC8: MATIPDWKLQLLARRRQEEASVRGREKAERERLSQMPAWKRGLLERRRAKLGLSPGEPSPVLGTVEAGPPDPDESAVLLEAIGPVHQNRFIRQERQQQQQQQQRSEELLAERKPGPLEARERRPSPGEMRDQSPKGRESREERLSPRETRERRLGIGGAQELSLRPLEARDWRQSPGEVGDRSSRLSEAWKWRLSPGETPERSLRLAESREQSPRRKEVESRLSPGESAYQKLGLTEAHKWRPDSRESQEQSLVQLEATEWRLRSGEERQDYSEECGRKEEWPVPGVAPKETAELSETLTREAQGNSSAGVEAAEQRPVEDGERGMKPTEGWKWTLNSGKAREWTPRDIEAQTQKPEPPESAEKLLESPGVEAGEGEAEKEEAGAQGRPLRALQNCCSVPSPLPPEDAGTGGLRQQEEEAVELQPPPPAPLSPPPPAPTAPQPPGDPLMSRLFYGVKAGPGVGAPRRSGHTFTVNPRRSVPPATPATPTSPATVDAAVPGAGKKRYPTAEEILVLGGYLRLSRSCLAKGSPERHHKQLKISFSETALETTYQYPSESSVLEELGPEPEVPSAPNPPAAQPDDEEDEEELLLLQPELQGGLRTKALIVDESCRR
UniProt P32119: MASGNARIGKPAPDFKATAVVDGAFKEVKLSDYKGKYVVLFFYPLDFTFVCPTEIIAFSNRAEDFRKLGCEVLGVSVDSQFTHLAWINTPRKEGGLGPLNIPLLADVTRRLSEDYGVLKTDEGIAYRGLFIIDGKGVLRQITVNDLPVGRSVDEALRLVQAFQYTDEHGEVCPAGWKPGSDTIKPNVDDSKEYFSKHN
UniProt P62140, whole entry, looked up: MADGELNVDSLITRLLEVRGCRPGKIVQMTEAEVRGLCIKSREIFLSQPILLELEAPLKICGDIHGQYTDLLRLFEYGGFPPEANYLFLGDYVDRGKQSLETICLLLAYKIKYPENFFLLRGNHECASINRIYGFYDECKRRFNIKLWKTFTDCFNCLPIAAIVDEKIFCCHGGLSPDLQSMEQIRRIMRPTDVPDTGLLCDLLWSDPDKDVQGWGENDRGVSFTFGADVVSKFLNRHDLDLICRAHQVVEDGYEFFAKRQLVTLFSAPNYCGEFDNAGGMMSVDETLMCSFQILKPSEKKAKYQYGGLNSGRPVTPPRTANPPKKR
UniProt P30044: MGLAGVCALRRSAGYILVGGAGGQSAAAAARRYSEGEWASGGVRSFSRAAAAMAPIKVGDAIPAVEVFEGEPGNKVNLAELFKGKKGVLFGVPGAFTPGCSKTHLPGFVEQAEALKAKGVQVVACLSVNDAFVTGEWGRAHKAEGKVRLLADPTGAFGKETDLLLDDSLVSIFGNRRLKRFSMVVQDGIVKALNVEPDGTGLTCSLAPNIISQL
UniProt Q86WR7: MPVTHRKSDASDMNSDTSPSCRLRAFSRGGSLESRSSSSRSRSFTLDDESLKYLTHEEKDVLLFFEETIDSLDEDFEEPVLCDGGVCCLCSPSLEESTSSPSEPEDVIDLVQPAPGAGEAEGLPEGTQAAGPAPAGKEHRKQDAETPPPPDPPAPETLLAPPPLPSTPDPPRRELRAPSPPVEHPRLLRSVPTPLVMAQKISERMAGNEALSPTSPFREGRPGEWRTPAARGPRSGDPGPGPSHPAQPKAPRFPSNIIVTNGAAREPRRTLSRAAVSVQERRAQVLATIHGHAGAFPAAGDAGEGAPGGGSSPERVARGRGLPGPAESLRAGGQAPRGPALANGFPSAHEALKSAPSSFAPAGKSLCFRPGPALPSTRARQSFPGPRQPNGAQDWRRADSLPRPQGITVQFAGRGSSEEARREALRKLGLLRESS
UniProt P48634: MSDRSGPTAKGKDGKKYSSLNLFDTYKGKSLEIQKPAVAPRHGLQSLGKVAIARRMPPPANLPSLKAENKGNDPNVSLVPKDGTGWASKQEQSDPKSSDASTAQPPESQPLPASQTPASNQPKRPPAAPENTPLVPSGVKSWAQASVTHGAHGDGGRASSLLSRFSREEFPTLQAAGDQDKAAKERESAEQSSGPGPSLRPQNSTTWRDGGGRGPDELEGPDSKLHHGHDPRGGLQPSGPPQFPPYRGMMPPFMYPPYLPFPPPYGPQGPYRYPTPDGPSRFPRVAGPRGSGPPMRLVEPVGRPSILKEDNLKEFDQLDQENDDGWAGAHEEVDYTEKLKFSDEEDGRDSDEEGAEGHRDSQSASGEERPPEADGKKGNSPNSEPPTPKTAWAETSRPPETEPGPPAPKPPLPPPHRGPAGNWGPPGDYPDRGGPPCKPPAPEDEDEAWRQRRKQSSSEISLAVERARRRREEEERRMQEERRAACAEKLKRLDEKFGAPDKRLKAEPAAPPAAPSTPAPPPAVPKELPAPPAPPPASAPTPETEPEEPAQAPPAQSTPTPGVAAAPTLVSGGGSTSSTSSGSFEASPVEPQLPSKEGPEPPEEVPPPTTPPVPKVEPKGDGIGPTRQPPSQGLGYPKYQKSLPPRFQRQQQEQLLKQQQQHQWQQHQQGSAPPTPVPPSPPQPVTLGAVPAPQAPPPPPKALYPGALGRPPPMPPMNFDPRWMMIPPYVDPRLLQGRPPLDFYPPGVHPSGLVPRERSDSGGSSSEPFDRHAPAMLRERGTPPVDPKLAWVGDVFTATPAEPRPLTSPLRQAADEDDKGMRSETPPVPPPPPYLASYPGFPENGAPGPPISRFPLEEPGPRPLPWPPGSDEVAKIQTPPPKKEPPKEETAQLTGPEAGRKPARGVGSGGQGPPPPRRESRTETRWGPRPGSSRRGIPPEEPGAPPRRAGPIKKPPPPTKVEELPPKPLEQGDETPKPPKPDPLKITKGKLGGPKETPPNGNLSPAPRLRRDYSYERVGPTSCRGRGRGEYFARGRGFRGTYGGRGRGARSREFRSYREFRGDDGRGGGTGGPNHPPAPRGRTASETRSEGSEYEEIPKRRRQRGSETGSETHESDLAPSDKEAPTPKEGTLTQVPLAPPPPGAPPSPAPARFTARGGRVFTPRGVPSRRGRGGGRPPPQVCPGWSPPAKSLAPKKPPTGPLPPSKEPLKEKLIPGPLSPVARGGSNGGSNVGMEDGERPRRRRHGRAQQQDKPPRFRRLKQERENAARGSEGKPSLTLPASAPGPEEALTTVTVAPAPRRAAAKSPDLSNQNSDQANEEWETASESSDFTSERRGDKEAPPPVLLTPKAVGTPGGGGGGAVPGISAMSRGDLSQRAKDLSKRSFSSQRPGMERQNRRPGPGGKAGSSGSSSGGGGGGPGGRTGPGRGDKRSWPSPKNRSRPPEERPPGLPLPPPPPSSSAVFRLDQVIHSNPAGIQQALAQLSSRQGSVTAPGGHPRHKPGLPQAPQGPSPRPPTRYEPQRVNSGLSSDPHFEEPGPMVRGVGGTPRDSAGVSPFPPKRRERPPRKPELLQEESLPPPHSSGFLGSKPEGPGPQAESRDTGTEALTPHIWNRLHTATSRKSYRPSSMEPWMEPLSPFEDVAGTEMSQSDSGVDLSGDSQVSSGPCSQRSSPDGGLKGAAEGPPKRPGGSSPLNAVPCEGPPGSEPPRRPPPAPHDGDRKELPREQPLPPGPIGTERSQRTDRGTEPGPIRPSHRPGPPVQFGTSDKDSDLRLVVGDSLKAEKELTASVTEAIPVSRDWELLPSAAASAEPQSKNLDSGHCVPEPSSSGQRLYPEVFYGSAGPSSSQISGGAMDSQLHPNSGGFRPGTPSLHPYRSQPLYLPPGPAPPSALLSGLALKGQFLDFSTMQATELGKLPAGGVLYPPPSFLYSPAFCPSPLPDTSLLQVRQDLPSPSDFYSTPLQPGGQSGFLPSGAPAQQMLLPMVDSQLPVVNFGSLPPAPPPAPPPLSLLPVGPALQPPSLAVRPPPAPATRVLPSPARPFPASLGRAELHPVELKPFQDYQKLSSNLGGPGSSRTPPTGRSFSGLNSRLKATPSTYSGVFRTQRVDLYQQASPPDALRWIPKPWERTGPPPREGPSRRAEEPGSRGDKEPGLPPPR
UniProt Q99873, whole entry, looked up: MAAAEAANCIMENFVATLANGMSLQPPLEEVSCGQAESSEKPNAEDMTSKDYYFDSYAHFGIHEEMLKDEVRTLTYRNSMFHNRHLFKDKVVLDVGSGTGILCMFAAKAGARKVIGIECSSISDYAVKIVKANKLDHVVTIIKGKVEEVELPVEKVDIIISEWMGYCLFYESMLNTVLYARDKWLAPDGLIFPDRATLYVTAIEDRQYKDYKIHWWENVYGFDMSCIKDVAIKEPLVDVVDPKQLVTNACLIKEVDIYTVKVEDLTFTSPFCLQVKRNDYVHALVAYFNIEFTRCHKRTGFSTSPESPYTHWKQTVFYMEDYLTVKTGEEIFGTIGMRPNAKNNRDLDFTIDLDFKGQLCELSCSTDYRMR

How the values were obtained:
Assay in all cases: log2 fold change, soluble protein after heating vs DMSO (PISA); higher = thermal stabilisation; K562 cells, 10 uM, 30 min; active = over 0.2 and 3.5 SD of the protein, either way, in both replicates (recomputed)
erlotinib = compound: C#Cc1cccc(Nc2ncnc3cc(OCCOC)c(OCCOC)cc23)c1 [erlotinib]
How it was run: (§1)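 K562 cells at 2×10^6 cells/mL were given 10 μM compound for 30 min. Aliquots then went through 3 min of heating across 48°C-58°C, were pooled, and were extracted in PBS with 0.5% NP-40 at 4°C, and the supernatant after 21,000xg for 90 min was quantified by TMTpro 16plex LC-MS/MS with channel sums equalised. Thermal stability relative to control samples, from duplicates, is given as log2 fold change.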

[1] = compound: C/C(=N\NC(=O)C1=CC(=CC=C1)S(=O)(=O)N2CCOCC2)/C3=C(C=CC(=C3)Cl)O
How it was run: as §1

[2] = compound: C1=CC(=C(C=C1Cl)C2=NC3=NC=CN=C3C(=N2)NC4=CC=NC=C4)F
How it was run: as §1

[3] = compound: C1=CC(=CC=C1C2=NC3=C(N2)C=C(C=C3)C(=O)N)OC4=CC=C(C=C4)Cl
How it was run: as §1

[4] = compound: C1=CC2=C(C=CC(=C2)/C=C\3/C(=O)NC(=NCC4=CC=CS4)S3)N=C1
How it was run: as §1

[5] = compound: C1=CC2=NC=CN=C2C=C1/C=C/3\C(=O)NC(=O)S3
How it was run: as §1

[6] = compound: C1=CC=C(C=C1)C2=NC(=C(N2)C3=CC=NC=C3)C4=CC(=C(C=C4)Cl)O
How it was run: as §1

[7] = compound: C1=CC=C2C(=C1)C3=NNC4=CC=CC(=C43)C2=O
How it was run: as §1

[8] = compound: C1CCN(C1)C(=O)NC2=CC=CC(=C2)NC3=NC=C(C(=N3)NCCC4=CN=CN4)Br
How it was run: as §1

[9] = compound: C1CN(CCC1(CC2=CC=C(C=C2)Cl)N)C3=NC=NC4=C3C=CN4
How it was run: as §1

IRAK-1-4 Inhibitor I = compound: C1COCCN1CCN2C3=CC=CC=C3N=C2NC(=O)C4=CC(=CC=C4)[N+](=O)[O-] [IRAK-1-4 Inhibitor I]
How it was run: as §1

ibrutinib = compound: C=CC(=O)N1CCC[C@@H](n2nc(-c3ccc(Oc4ccccc4)cc3)c3c(N)ncnc32)C1 [ibrutinib]
How it was run: as §1

[10] = compound: CC(=O)c1cnc2ccc(-c3cc(Cl)c(O)c(Cl)c3)nc2c1N[C@H]1CC[C@H](CN(C)C)CC1
How it was run: as §1

ralimetinib = compound: CC(C)(C)Cn1c(N)nc2ccc(-c3[nH]c(C(C)(C)C)nc3-c3ccc(F)cc3)nc21 [ralimetinib]
How it was run: as §1

[11] = compound: CC(C)(O)CC(=O)NCCn1ccc2ncnc(Nc3ccc(Oc4cccc(C(F)(F)F)c4)c(Cl)c3)c21
How it was run: as §1

[12] = compound: CC(C)C1=C2N=C(C=C(N2N=C1)NCC3=CC=CC=C3)NCCCCCCN
How it was run: as §1

[13] = compound: CC(C)C[C@@H](C=O)NC(=O)[C@H](CC(C)C)NC(=O)[C@H](CC(C)C)NC(=O)OCc1ccccc1
How it was run: as §1

pinometostat = compound: CC(C)N(C[C@H]1O[C@@H](n2cnc3c(N)ncnc32)[C@H](O)[C@@H]1O)[C@H]1C[C@@H](CCc2nc3cc(C(C)(C)C)ccc3[nH]2)C1 [pinometostat]
How it was run: as §1

[14] = compound: CC1=C(C(CC(=O)N1)C2=CC=C(C=C2)C(F)(F)F)C(=O)NC3=C(C=C4C(=C3)C=NN4)F
How it was run: as §1

[15] = compound: CC1=C(C2=C(C=C1)C(=O)C3=CC=CC=C3N2CCCN)C
How it was run: as §1

Measured: log2 fold change

PPP2CB (UniProt P62714)
inactive: erlotinib 0.001 | [1] -0.034 | [2] 0.009 | [3] 0.001 | [4] -0.011 | [5] -0.016 | [6] -0.016 | [7] -0.038 | [8] 0.01 | [9] 0.046 | IRAK-1-4 Inhibitor I 0.021 | ibrutinib 0.022 | [10] 0.001 | ralimetinib 0.004 | [11] -0.018 | [12] 0.063 | [13] -0.009 | pinometostat -0.033 | [14] 0.019 | [15] -0.023

PPP1R2 (UniProt P41236)
inactive: erlotinib -0.001 | [1] -0.002 | [2] -0.02 | [3] 0 | [4] -0.023 | [5] -0.006 | [6] -0.049 | [7] -0.052 | [8] 0.022 | [9] 0.041 | IRAK-1-4 Inhibitor I 0.049 | ibrutinib 0.005 | [10] 0.012 | ralimetinib -0.083 | [11] 0.172 | [12] 0.049 | [13] -0.023 | pinometostat -0.038 | [14] 0.032 | [15] -0.04

PRKDC (UniProt P78527)
inactive: erlotinib -0.038 | [1] 0.086 | [2] 0.08 | [3] -0.012 | [4] 0.025 | [5] 0.001 | [6] 0.029 | [7] 0.006 | [8] -0.001 | [9] 0.018 | IRAK-1-4 Inhibitor I 0.011 | ibrutinib -0.038 | [10] -0.082 | ralimetinib -0.028 | [11] -0.064 | [12] 0.01 | [13] -0.022 | pinometostat -0.018 | [14] -0.004 | [15] 0.113

PPP1R8 (UniProt Q12972)
inactive: erlotinib -0.052 | [1] 0.039 | [2] 0.148 | [3] 0.055 | [4] -0.101 | [5] 0.048 | [6] -0.017 | [7] 0.018 | [8] -0.045 | [9] 0.071 | IRAK-1-4 Inhibitor I -0.044 | ibrutinib 0.005 | [10] -0.044 | ralimetinib -0.086 | [11] -0.051 | [12] 0.034 | [13] 0.039 | pinometostat -0.017 | [14] 0.005 | [15] 0.041

PRKRIP1 (UniProt Q9H875)
inactive: erlotinib -0.006 | [1] -0.002 | [2] -0.007 | [3] 0.053 | [4] -0.092 | [5] 0.105 | [6] 0.016 | [7] -0.027 | [8] 0.011 | [9] 0.021 | IRAK-1-4 Inhibitor I -0.013 | ibrutinib -0.029 | [10] 0.114 | ralimetinib 0.02 | [11] 0.069 | [12] 0.153 | [13] -0.031 | pinometostat -0.005 | [14] 0.002 | [15] 0.064

PRPS2 isoform 2 (UniProt P11908)
inactive: erlotinib -0.05 | [1] 0.014 | [2] 0.023 | [3] 0.002 | [4] 0.04 | [5] 0 | [6] -0.023 | [7] -0.008 | [8] 0.012 | [9] -0.01 | IRAK-1-4 Inhibitor I -0.019 | ibrutinib 0.003 | [10] -0.006 | ralimetinib -0.074 | [11] -0.021 | [12] 0.07 | [13] -0.056 | pinometostat -0.01 | [14] 0.012 | [15] 0.065

PRDX6 (UniProt P30041)
inactive: erlotinib 0.048 | [1] 0.01 | [2] 0.012 | [3] -0.007 | [4] 0.043 | [5] -0.001 | [6] -0.013 | [7] 0.023 | [8] 0.032 | [9] 0.038 | IRAK-1-4 Inhibitor I 0.041 | ibrutinib 0 | [10] -0.029 | ralimetinib -0.042 | [11] 0.003 | [12] -0.033 | [13] -0.016 | pinometostat -0.041 | [14] -0.007 | [15] 0.034

PREP (UniProt P48147)
inactive: erlotinib 0.028 | [1] 0.091 | [2] -0.117 | [3] -0.016 | [4] 0.114 | [5] 0.058 | [6] 0.075 | [7] -0.029 | [8] -0.041 | [9] -0.097 | IRAK-1-4 Inhibitor I -0.128 | ibrutinib -0.007 | [10] 0 | ralimetinib 0.158 | [11] -0.059 | [12] -0.223 | [13] 0.052 | pinometostat 0.179 | [14] 0.021 | [15] 0.01

PRPF8 (UniProt Q6P2Q9)
inactive: erlotinib -0.099 | [1] -0.012 | [2] -0.123 | [3] 0.029 | [4] -0.015 | [5] 0.046 | [6] -0.091 | [7] -0.028 | [8] -0.005 | [9] -0.04 | IRAK-1-4 Inhibitor I 0.018 | ibrutinib -0.001 | [10] 0.037 | ralimetinib 0.022 | [11] 0.023 | [12] 0.123 | [13] 0.071 | pinometostat 0.111 | [14] -0.043 | [15] 0.012

PPP1R18 (UniProt Q6NYC8)
inactive: erlotinib -0.031 | [1] 0.01 | [2] -0.019 | [3] 0 | [4] -0.011 | [5] 0.061 | [6] -0.032 | [7] -0.011 | [8] -0.018 | [9] -0.046 | IRAK-1-4 Inhibitor I -0.07 | ibrutinib 0.007 | [10] -0.184 | ralimetinib -0.035 | [11] 0.031 | [12] -0.005 | [13] 0.03 | pinometostat -0.074 | [14] -0.015 | [15] 0.034

PRDX2 (UniProt P32119)
inactive: erlotinib 0.014 | [1] -0.037 | [2] 0.024 | [3] -0.033 | [4] 0.011 | [5] -0.015 | [6] -0.011 | [7] 0.014 | [8] 0.033 | [9] 0.033 | IRAK-1-4 Inhibitor I 0.049 | ibrutinib -0.008 | [10] -0.064 | ralimetinib -0.016 | [11] 0.017 | [12] 0.01 | [13] -0.025 | pinometostat -0.041 | [14] 0.029 | [15] 0.017

Reprinted at random: two entries already listed
PRDX2 (UniProt P32119)
inactive: erlotinib 0.014 | [1] -0.037 | [2] 0.024 | [3] -0.033 | [4] 0.011 | [5] -0.015 | [6] -0.011 | [7] 0.014 | [8] 0.033 | [9] 0.033 | IRAK-1-4 Inhibitor I 0.049 | ibrutinib -0.008 | [10] -0.064 | ralimetinib -0.016 | [11] 0.017 | [12] 0.01 | [13] -0.025 | pinometostat -0.041 | [14] 0.029 | [15] 0.017

PRPF8 (UniProt Q6P2Q9)
inactive: erlotinib -0.099 | [1] -0.012 | [2] -0.123 | [3] 0.029 | [4] -0.015 | [5] 0.046 | [6] -0.091 | [7] -0.028 | [8] -0.005 | [9] -0.04 | IRAK-1-4 Inhibitor I 0.018 | ibrutinib -0.001 | [10] 0.037 | ralimetinib 0.022 | [11] 0.023 | [12] 0.123 | [13] 0.071 | pinometostat 0.111 | [14] -0.043 | [15] 0.012

(listing goes on)

PPP1CB (UniProt P62140)
inactive: erlotinib 0.059 | [1] 0.05 | [2] -0.025 | [3] 0.034 | [4] -0.021 | [5] 0.027 | [6] -0.021 | [7] -0.005 | [8] -0.024 | [9] 0 | IRAK-1-4 Inhibitor I -0.008 | ibrutinib -0.028 | [10] -0.072 | ralimetinib -0.053 | [11] -0.02 | [12] 0.046 | [13] -0.01 | pinometostat -0.027 | [14] -0.037 | [15] -0.044

PRDX5 (UniProt P30044)
inactive: erlotinib -0.022 | [1] 0.021 | [2] 0.074 | [3] -0.01 | [4] 0.029 | [5] 0.012 | [6] -0.04 | [7] -0.02 | [8] 0.015 | [9] 0.038 | IRAK-1-4 Inhibitor I 0.03 | ibrutinib 0.006 | [10] -0.003 | ralimetinib -0.083 | [11] 0.015 | [12] 0.044 | [13] -0.017 | pinometostat -0.014 | [14] -0.013 | [15] -0.001

PROSER2 (UniProt Q86WR7)
inactive: erlotinib 0.042 | [1] 0.047 | [2] 0.048 | [3] -0.003 | [4] -0.06 | [5] -0.004 | [6] -0.044 | [7] 0.079 | [8] -0.076 | [9] 0.019 | IRAK-1-4 Inhibitor I 0.034 | ibrutinib -0.11 | [10] -0.064 | ralimetinib 0.073 | [11] -0.167 | [12] 0.069 | [13] 0.04 | pinometostat -0.005 | [14] 0.051 | [15] -0.057

PRRC2A (UniProt P48634)
inactive: erlotinib -0.037 | [1] -0.115 | [2] -0.241 | [3] 0.021 | [4] -0.028 | [5] 0 | [6] -0.035 | [7] -0.033 | [8] 0.018 | [9] -0.077 | IRAK-1-4 Inhibitor I -0.098 | ibrutinib -0.003 | [10] 0.083 | ralimetinib 0.118 | [11] 0.082 | [12] 0.009 | [13] 0.084 | pinometostat 0.168 | [14] 0.006 | [15] -0.002

PRMT1 (UniProt Q99873)
inactive: erlotinib -0.028 | [1] 0.06 | [2] 0.087 | [3] -0.021 | [4] 0.016 | [5] -0.002 | [6] 0.06 | [7] -0.004 | [8] 0.033 | [9] 0.024 | IRAK-1-4 Inhibitor I 0.055 | ibrutinib 0.009 | [10] 0.02 | ralimetinib -0.014 | [11] -0.083 | [12] 0.045 | [13] -0.033 | pinometostat 0 | [14] -0.001 | [15] 0.064
